Paper PMC2727493

Biological target: T1, FLAG-tagged PDK1 (UniProt O15530)
T1 sequence: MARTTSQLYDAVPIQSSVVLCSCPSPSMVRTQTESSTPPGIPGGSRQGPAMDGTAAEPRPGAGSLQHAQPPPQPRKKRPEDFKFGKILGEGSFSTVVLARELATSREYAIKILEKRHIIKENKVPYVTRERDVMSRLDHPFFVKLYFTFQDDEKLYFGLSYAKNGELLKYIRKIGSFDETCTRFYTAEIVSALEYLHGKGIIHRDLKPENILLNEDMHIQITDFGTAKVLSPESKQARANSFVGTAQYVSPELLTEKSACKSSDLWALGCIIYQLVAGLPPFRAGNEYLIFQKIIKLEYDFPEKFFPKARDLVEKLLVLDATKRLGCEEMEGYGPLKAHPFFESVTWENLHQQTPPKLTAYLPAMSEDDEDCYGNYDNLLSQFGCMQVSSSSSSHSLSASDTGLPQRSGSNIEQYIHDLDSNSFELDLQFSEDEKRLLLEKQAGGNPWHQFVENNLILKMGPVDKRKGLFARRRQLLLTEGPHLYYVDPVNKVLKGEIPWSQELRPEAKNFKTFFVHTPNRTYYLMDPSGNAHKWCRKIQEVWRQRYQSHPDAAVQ
Assay: co-IP; SkBr3 transfected with FLAG-PDK1; anti-FLAG IP, western blot for pAkt, EF1α and β-actin

binding: binds
Substance: eukaryotic Elongation Factor 1 alpha (EF1α) (human (endogenous in SkBr3 and HCC1937))

Results are given in words; binding and its absence hold for the method and conditions named. In cells and extracts the contact can be indirect. Binding can be weak; no strength is given. Tags and fused reporters may be left off the sequences shown.
